In PubChem BioAssay AID662 (National Center for Advancing Translational Sciences (NCATS), 2007):
Several values for one entry are separate records, joined by “and”; a condition that tells them apart may be missing. Identical values can stand only once. This is one part of the list. These are further read-outs of the screen, such as a control signal, another cell line or another target. No call is given for them. Most of these compounds were active or inconclusive in the main read-out, so they are no random draw. Words in brackets tell the shape of the fitted curve; partial curves, single points and poor fits give uncertain potencies.

Assay: Cell signaling CRE-BLA (Fsk stim)
Settings: CHO CRE-bla reporter (cAMP response element driving beta-lactamase), forskolin EC10, beta-lactamase ratio; measured here: 460 nm blue channel
Summary of the method: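 qHTS titration format; CRE-bla CHO reporter; stimulus EC10 NKH 477, a water-soluble forskolin. Read: CCF4 460/530 nm ratio. Potency expressed as AC50 for activators or inhibitors.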

For `c1ccc(-n2ncc3c(NCc4ccccn4)ncnc32)cc1`, which AC50 is on record?
The AC50 was 12.6 µM [rising, single point].

Which AC50 does the source give for `CCCCCCCCCCCCCCCC(=O)NC[C@@H](COP(=O)([O-])OCC[N+](C)(C)C)OCC` here?
The AC50 was 15.8 µM [falling, partial curve, poor fit].

With `COc1cccc(C2=NOC(C(=O)NCC3CCCO3)C2)c1` (stereo not given) as the molecule, how does the AC50 read?
Its AC50 is 5.01 µM [falling, single point].

Which AC50 does the source give for `Cc1nnc(SCc2ccc(Cl)cc2)n1CC1CCCO1` (stereo not given) here?
Its AC50 is 7.94 µM [falling, partial curve].

For `N#Cc1c(-c2ccccc2)cc(C2CC2)nc1N`, which AC50 is on record?
The AC50 was 5.01 µM [rising, partial curve].

With `COc1cccc(Cn2c(N)c(C#N)c3nc4ccccc4nc32)c1OC` as the molecule, how does the AC50 read?
Its AC50 is 12.6 µM [rising, partial curve].

For `COc1ccc(Cl)c(Cn2c(NCCCO)nc3c2c(=O)n(C)c(=O)n3C)c1`, which AC50 is on record?
Its AC50 is 25.1 µM [rising, single point].

With `C=C(CC)C(=O)c1ccc(OCC(=O)O)c(Cl)c1Cl` as the molecule, how does the AC50 read?
The AC50 was 12.6 µM [falling, single point] and 15.8 µM [falling, partial curve].

Which AC50 does the source give for `COC(=O)c1cc(OC)c(OC)cc1NC(=O)CCCCCN1C(=O)CCC1=O` here?
Its AC50 is 20 µM [rising, single point].

With `Cc1nc2cc(-n3ccc(=O)cc3)ccc2n1-c1ccccc1` as the molecule, how does the AC50 read?
Its AC50 is 3.98 µM [falling, partial curve, poor fit].

Which AC50 does the source give for `Cc1cc2ccccn2c1C(=O)c1ccncc1` here?
The AC50 was 3.98 µM [falling, single point].

For `CC1CN(c2nc3ccccc3nc2C(C#N)C(=O)OC2CCCCC2)CC(C)O1` (stereo not given), which AC50 is on record?
Its AC50 is 25.1 µM [rising, single point].

With `COC(=O)CCCCC1SCC(NC(=O)OC)C1NC(=O)OC` (stereo not given) as the molecule, how does the AC50 read?
The AC50 was 0.398 µM [falling, full curve, poor fit].

For `O=C(NCc1ccco1)c1cnn2c(C(F)(F)F)cc(-c3cccs3)nc12`, which AC50 is on record?
Its AC50 is 7.94 µM [rising, partial curve].

Which AC50 does the source give for `CNCCNS(=O)(=O)c1cccc2cnccc12` here?
Its AC50 is 15.8 µM [falling, partial curve].

For `c1ccc2c(Nc3ccncc3)nc(-c3ccoc3)nc2c1`, which AC50 is on record?
The AC50 was 15.8 µM [rising, partial curve].

Which AC50 does the source give for `O=C(NCCN1CCOCC1)NC1(C(F)(F)F)Oc2ccc(Cl)cc2O1` (stereo not given) here?
The AC50 was 10 µM [falling, partial curve].

For `NC(=O)C1CCN(CC(=O)c2c[nH]c3ccc(F)cc23)CC1`, which AC50 is on record?
Its AC50 is 3.16 µM [falling, full curve].

With `O=c1ccc2cc3c([nH]c4ccc(Br)cc43)oc-2c1O` as the molecule, how does the AC50 read?
Its AC50 is 0.00316 µM [falling, full curve, poor fit].

Which AC50 does the source give for `COc1ccc(-n2cnc3c(sc4nccc(N(C)C)c43)c2=O)cc1` here?
Its AC50 is 0.00501 µM [falling, full curve, poor fit].

Which AC50 does the source give for `CC(=O)Nc1nc(C)nc(-c2ccccc2OC(C)=O)n1` here?
Its AC50 is 10 µM [rising, single point].

Which AC50 does the source give for `Cc1cccc(-n2c(Cc3cc(=O)[nH]c(=O)[nH]3)nnc2SCC(=O)NCc2ccco2)c1` here?
The AC50 was 0.00398 µM [falling, full curve, poor fit].

For `Cc1ccc(C2C3CSCC=C3C(C#N)=C(N)C2(C#N)C#N)cc1` (stereo not given), which AC50 is on record?
Its AC50 is 12.6 µM [rising, partial curve].

Which AC50 does the source give for `Cc1cc(NC(=O)C2CC(=O)OC2c2ccccc2)no1` (stereo not given) here?
Its AC50 is 0.0794 µM [falling, partial curve, poor fit].

For `CCn1c(=O)cc(SCC(=O)Nc2ccccc2N2CCN(C)CC2)c2ccccc21`, which AC50 is on record?
Its AC50 is 1.26 µM [rising, partial curve].

For `CCOC(=O)c1ccccc1NC(=O)C(C)Oc1ccccc1` (stereo not given), which AC50 is on record?
The AC50 was 12.6 µM [rising, partial curve].

For `Clc1ccc(OCc2cn3cccnc3n2)c2ncccc12`, which AC50 is on record?
The AC50 was 3.16 µM [rising, single point].

With `COc1ccc(OC)c(N=CC2=C(O)CC(C)(C)CC2=O)c1` as the molecule, how does the AC50 read?
Its AC50 is 12.6 µM [rising, partial curve].

For `Cc1nc2c(-c3ccc(F)cc3)c(C)nn2c(C)c1CCC(=O)NC(C)CCc1ccco1` (stereo not given), which AC50 is on record?
Its AC50 is 12.6 µM [falling, single point].

For `O=C(Nc1ccc2nc(-c3ccco3)[nH]c2c1)c1ccco1`, which AC50 is on record?
The AC50 was 12.6 µM [rising, partial curve].

For `O=C1NC(Nc2nccs2)(C(F)(F)F)C(=O)N1CCc1ccccc1` (stereo not given), which AC50 is on record?
The AC50 was 25.1 µM [rising, single point].

For `COc1ccc(Nc2nc(C)cc(C)c2C#N)cc1OC`, which AC50 is on record?
Its AC50 is 12.6 µM [rising, partial curve].

Which AC50 does the source give for `CS(=O)(=O)Nc1cccc(-c2nc(NCCN3CCOCC3)c3ccccc3n2)c1` here?
Its AC50 is 10 µM [rising, partial curve].

For `CCCN(CCC)CCNC(=O)C(NS(=O)(=O)c1ccc2c(c1)CCC(=O)N2)c1ccccc1` (stereo not given), which AC50 is on record?
The AC50 was 12.6 µM [falling, single point].

With `O=C(CN1CCN(c2ccccc2F)CC1)c1ccc2cc[nH]c2c1` as the molecule, how does the AC50 read?
Its AC50 is 10 µM [falling, partial curve].

With `NC(=O)C1=CN([C@@H]2O[C@@H](COP(=O)(O)OP(=O)(O)OC[C@@H]3O[C@H](n4cnc5c(N)ncnc54)[C@@H](OP(=O)(O)O)[C@@H]3O)[C@H](O)[C@@H]2O)C=CC1` as the molecule, how does the AC50 read?
Its AC50 is 12.6 µM [falling, single point].

For `COc1ccc(-c2nc3ccccc3c(=O)n2CCCN2CCOCC2)cc1`, which AC50 is on record?
Its AC50 is 25.1 µM [rising, single point].

For `CCOC(=O)c1c(C)c(C(=O)NCc2ccccc2OC)c(C)n1C`, which AC50 is on record?
The AC50 was 12.6 µM [rising, single point].

For `CCOC(=O)c1sc(N(Cc2ccccc2)C(=O)CN2C(=O)CN(C)C2=O)nc1C`, which AC50 is on record?
The AC50 was 10 µM [rising, single point].

For `CCCn1nc(-c2nnc(-c3ccc(C)c(C)c3)o2)c2ccccc2c1=O`, which AC50 is on record?
Its AC50 is 5.01 µM [falling, single point].

With `O=C(Nc1ccc2c(c1)OCO2)C1CCN(S(=O)(=O)c2cccc3cccnc23)CC1` as the molecule, how does the AC50 read?
Its AC50 is 25.1 µM [falling, single point].

Which AC50 does the source give for `CC1=CCC2C(=O)N(c3cccc(C(=O)N(C)C4CCCCC4)c3)C(=O)C2C1` (stereo not given) here?
Its AC50 is 0.501 µM [rising, full curve].

With `COc1ccc(N2CCN(C(=O)c3cc4c(-c5cccc(OC)c5)nn(C)c4s3)CC2)cc1` as the molecule, how does the AC50 read?
The AC50 was 3.98 µM [rising, full curve].

For `COc1ccc2[nH]c3c(=O)n(Cc4ccco4)cnc3c2c1`, which AC50 is on record?
Its AC50 is 3.16 µM [rising, full curve].

With `N#C/C(=C1/CCCCCN1)c1nnc2n1CCCCC2` as the molecule, how does the AC50 read?
The AC50 was 0.631 µM [falling, full curve, poor fit].

With `Cc1nn(-c2ccccc2)c2sc(C(=O)OC3CCOC3=O)cc12` (stereo not given) as the molecule, how does the AC50 read?
Its AC50 is 10 µM [rising, single point].

For `COc1cc2c(cc1OC)C(c1ccc3c(c1)OCO3)C1=C(CC(C)(C)CC1=O)N2` (stereo not given), which AC50 is on record?
Its AC50 is 12.6 µM [rising, partial curve].

For `O=C(Cn1nc(-c2ccccc2)c2ccccc2c1=O)NCC1CCCO1` (stereo not given), which AC50 is on record?
The AC50 was 12.6 µM [rising, single point].

Which AC50 does the source give for `COCCOC(=O)c1c(C)oc2ccc(NS(=O)(=O)c3ccccc3)cc12` here?
The AC50 was 10 µM [rising, partial curve].

For `COc1ccccc1N(C(=O)c1snc(C(N)=O)c1N)C(C(=O)NC1CCCC1)c1ccco1` (stereo not given), which AC50 is on record?
Its AC50 is 3.16 µM [rising, single point].

Which AC50 does the source give for `CCN(CC)S(=O)(=O)c1cccc(C(=O)Nc2cc(C)nn2-c2nc(C)cc(C)n2)c1` here?
Its AC50 is 3.98 µM [falling, single point].

With `CC(C)c1ccc(NC(=O)N2CCC(c3nc4ccccc4o3)CC2)cc1` as the molecule, how does the AC50 read?
Its AC50 is 0.631 µM [falling, single point].

Which AC50 does the source give for `CCOc1cc(C2NC(=O)NC(O)(C(F)(F)F)C2C(=O)c2ccc(Cl)cc2)ccc1O` (stereo not given) here?
The AC50 was 0.00398 µM [falling, full curve, poor fit].

Which AC50 does the source give for `COCCCN1C(=O)C(=O)/C(=C(/O)c2ccc(OCC(C)C)cc2C)C1c1cccnc1` (stereo not given) here?
Its AC50 is 0.00316 µM [rising, full curve, poor fit].

With `CN1CCN(c2ncc3nc(CCc4ccccc4)c(=O)n(Cc4cccs4)c3n2)CC1` as the molecule, how does the AC50 read?
Its AC50 is 10 µM [rising, partial curve].

With `CCC(=O)N1c2ccc(S(=O)(=O)CCC(=O)N3CCN(c4ccccc4)CC3)cc2CC1C` (stereo not given) as the molecule, how does the AC50 read?
The AC50 was 0.501 µM [falling, partial curve].

For `CCOC(=O)c1ccccc1NC(=O)CN(c1ccccc1OC)S(C)(=O)=O`, which AC50 is on record?
The AC50 was 1.58 µM [rising, partial curve].

Which AC50 does the source give for `Cc1cc(NC(=O)COC(=O)c2n[nH]c3ccccc23)no1` here?
Its AC50 is 2.51 µM [rising, partial curve, poor fit].

Which AC50 does the source give for `COc1cc(-n2c(=O)c3ccccc3n(Cc3cccnc3)c2=O)cc(OC)c1OC` here?
Its AC50 is 0.316 µM [falling, partial curve].

Which AC50 does the source give for `CCN(C(=O)c1cccs1)c1nnc(-c2ccncc2)s1` here?
Its AC50 is 0.1 µM [falling, single point].

With `Cc1ccc(C(NC(=O)N2CCOCC2)=C(Cl)Cl)cc1F` as the molecule, how does the AC50 read?
Its AC50 is 5.01 µM [falling, full curve].

For `c1cn2c(NC3CCCC3)c(-c3ccc(N4CCOCC4)cc3)nc2cn1`, which AC50 is on record?
Its AC50 is 10 µM [rising, partial curve].

With `COc1cc(CO)cc(-c2cc(CO)cc(OC)c2OC)c1OC` as the molecule, how does the AC50 read?
Its AC50 is 0.00794 µM [falling, full curve, poor fit].

Which AC50 does the source give for `NC(=O)c1sc2nccc(Nc3ccccc3)c2c1N` here?
The AC50 was 7.94 µM [falling, partial curve].

For `CCn1nc(NC(=O)c2ccccn2)c2cc3cc(C)ccc3nc21`, which AC50 is on record?
Its AC50 is 10 µM [rising, partial curve].
